Percent effect of library compounds

Protein sequences, listed by entry. Tags and fused reporters are not part of them. Residues count along the entry.
UniProt I6X8D2, whole entry: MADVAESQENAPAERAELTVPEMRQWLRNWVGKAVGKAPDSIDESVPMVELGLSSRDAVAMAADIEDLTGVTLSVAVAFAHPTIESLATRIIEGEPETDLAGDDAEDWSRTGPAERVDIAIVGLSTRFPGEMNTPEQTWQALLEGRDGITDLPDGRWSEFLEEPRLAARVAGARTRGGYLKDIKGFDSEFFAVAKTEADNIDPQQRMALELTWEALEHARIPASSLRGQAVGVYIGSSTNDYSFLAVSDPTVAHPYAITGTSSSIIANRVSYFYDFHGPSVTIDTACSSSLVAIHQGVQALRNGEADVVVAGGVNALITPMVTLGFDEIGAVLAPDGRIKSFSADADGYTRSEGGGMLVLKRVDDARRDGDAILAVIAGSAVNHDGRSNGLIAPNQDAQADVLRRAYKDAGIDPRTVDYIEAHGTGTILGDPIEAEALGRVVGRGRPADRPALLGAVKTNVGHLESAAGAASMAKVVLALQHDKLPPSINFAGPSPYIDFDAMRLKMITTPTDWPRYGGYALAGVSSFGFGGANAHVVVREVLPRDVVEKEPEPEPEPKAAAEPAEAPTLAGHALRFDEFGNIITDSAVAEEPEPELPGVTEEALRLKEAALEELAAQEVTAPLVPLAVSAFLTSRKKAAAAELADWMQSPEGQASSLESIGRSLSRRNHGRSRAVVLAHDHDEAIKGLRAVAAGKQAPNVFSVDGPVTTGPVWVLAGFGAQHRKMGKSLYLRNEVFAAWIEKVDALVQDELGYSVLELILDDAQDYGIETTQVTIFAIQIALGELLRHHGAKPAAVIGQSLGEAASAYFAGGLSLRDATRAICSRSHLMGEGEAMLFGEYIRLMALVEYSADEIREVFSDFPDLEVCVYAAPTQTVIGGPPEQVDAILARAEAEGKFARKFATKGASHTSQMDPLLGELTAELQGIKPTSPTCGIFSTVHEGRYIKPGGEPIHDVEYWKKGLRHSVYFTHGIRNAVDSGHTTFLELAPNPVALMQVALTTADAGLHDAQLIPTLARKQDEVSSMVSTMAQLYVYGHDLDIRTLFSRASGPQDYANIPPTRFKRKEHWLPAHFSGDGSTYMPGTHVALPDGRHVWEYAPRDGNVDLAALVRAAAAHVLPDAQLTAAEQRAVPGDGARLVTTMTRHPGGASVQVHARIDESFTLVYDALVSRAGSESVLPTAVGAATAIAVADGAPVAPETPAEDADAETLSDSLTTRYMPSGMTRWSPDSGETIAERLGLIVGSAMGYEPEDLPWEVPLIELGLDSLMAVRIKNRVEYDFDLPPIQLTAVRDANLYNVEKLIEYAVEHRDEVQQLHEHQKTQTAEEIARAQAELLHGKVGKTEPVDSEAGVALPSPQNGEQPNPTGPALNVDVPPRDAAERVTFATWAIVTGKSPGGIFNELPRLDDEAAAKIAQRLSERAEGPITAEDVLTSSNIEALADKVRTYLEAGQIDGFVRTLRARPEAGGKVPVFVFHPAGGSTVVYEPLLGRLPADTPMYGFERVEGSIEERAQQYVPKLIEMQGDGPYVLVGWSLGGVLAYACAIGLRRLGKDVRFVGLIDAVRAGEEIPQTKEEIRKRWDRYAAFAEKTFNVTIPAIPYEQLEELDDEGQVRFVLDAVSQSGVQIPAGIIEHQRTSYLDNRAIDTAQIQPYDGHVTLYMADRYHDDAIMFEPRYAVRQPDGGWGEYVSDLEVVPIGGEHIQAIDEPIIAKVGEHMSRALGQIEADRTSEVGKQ
UniProt Q4DA54, 1-478: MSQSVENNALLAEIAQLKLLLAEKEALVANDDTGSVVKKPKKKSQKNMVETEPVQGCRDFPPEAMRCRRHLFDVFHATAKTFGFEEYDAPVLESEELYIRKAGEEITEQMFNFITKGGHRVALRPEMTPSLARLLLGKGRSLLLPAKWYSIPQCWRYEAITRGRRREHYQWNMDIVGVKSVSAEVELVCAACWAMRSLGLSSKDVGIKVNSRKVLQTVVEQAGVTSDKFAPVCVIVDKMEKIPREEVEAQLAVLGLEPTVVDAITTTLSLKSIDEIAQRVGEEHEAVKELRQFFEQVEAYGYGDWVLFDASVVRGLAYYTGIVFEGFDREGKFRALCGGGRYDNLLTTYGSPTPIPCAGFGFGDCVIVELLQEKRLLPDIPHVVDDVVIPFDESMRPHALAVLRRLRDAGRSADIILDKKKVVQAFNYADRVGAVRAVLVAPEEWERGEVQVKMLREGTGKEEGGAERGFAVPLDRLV
UniProt A4I591, 1-473: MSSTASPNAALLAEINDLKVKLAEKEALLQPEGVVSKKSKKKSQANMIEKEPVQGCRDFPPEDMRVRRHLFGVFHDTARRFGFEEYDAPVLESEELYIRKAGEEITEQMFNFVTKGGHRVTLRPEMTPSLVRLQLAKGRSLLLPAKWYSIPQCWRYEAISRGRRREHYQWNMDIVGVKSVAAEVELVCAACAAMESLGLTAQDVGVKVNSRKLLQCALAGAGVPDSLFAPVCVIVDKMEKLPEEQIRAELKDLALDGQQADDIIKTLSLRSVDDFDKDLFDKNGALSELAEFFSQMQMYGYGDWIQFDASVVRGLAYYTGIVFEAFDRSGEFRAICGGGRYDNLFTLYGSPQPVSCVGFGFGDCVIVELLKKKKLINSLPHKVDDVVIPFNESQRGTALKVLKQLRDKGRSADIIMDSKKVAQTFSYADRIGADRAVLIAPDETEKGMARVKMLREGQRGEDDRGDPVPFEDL

From ChEMBL document CHEMBL3988442, “University of Dundee, Small-Polar-MMV Screening Library” (2021).

Pks13 thioesterase: 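Polyketide synthase Pks13, Mycobacterium tuberculosis (UniProt I6X8D2). Enzyme assay of the thioesterase domain of polyketide synthase 13; the read-out is not stated. Tested at 30 µM. The record gives no direction; the compounds picked for IC50 retests had high values, so higher reads as stronger inhibition. About 67,000 compounds were tested under these conditions; 0.46% (about 300) showed 50% or more at least once.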
TcHisRS: 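Histidine-tRNA ligase, Trypanosoma cruzi CL Brener (UniProt Q4DA54). Enzyme assay of histidyl-tRNA synthetase; the read-out is not stated. Compounds at 30 µM. Higher reads as stronger inhibition (inferred: compounds with an IC50 in retests scored well above the rest). About 69,000 compounds were tested under these conditions; 0.045% (about 31) showed 50% or more at least once.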
LiHisRS: 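Enzyme assay of histidyl-tRNA synthetase; the read-out is not stated. Target: Histidine-tRNA ligase, Leishmania infantum (UniProt A4I591). Concentration: 30 µM. The record gives no direction; compounds that gave an IC50 in retests scored well above the rest, so higher reads as stronger inhibition. The assay is labelled LdHisRS but filed under L. infantum. Of about 69,000 compounds tested this way, about 410 (0.6%) reached 50% or more in at least one test.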

Results are given as percent effect. The record does not define 0% and 100%; most values in the screen are far below 50% and negative numbers occur (in some assays of this library far below -100). Compounds were drawn at random from those tested, without regard to their results. A dash means the value is not listed here; it may have been measured.

| SMILES | Pks13 thioesterase | TcHisRS | LiHisRS |
|---|---|---|---|
| `O=C(Cc1ccc(O)c(Cl)c1)N1CCCCC1CCn1cccn1` (centres unmarked) | -33.95 | 2.5 | 17.31 |
| `CCN1C(=O)C(C)(C)c2cc(NC(=O)c3ccco3)ccc21` | -12.47 | 0.8368 | 25.47 |
| `O=C(C[S+]([O-])Cc1ccc(F)cc1Cl)NC1CCCC1` (centres unmarked) | -25.82 | 7.143 | 20 |
| `CCCNC(=O)C(C)NC(=O)Nc1ccccc1SC(F)F` (centres unmarked) | 8.074 | 4.706 | 15.08 |
| `Cc1nc(CN2CCCN(CCOc3ccc(C#N)cc3)CC2)no1` | -6.66 | 15.03 | 30.7 |
| `CCN(C)c1cc(CNC(=O)CNC(=O)CC2CCCCC2)ccn1` | -4.316 | 8.407 | 16.81 |
| `c1cc2nccc(CC3CCCN(C4CCOCC4)CC3)c2cn1` (centres unmarked) | 11.71 | 13.33 | 22.68 |
| `CCSc1ccccc1C(=O)N(CCOC)Cc1ccoc1` | - | 3 | 15.07 |
| `O=C1[C@H]2CN(c3ncc(F)cn3)C[C@H]2CN1CC1CC1` | 13.88 | 2.299 | 8 |
| `CN(C)[C@@H]1CO[C@H](CNC(=O)c2ccccc2)[C@H]1O` | -34.02 | -26.73 | 27.78 |
| `Cc1cc(C)n(CCCN(C)C(=O)[C@H]2CCCO2)n1` | 27.04 | 14.12 | 11.9 |
| `CC(C)(C)C(Cn1cccn1)NC(=O)c1ccco1` (centres unmarked) | 10.44 | 5.78 | 12.37 |
| `Cc1nc(C2CCCN2CCC(=O)N2CCc3ccccc32)no1` (centres unmarked) | -8.147 | 3.509 | 5.455 |
| `COc1ccccc1N1CCN(C(=O)NC(C)c2nncn2C)CC1` (centres unmarked) | -10.83 | 4.52 | 12.07 |
| `OC(CN1CCC(c2ccn[nH]2)CC1)c1ccc(F)cc1F` (centres unmarked) | -3.991 | 1.163 | 10.71 |
| `Cc1nc2cc(C3CCCCN3C(=O)C3CC3)nn2c(O)c1C` (centres unmarked) | 9.02 | 5.639 | 7.092 |
| `Cc1ccc(CC2COCCN(S(=O)(=O)c3ccccc3)C2)nc1` (centres unmarked) | 7.408 | 9.579 | 21.43 |
| `Cc1ccnc(C2CCN(CCCOc3ccccc3F)C2)n1` (centres unmarked) | -5.321 | 2.26 | 15.38 |
| `COc1ccc2cnn(CC(=O)NC3CCCC3)c(=O)c2c1OC` | -5.29 | 9.375 | 20.83 |
| `COc1cc(OC)cc(-n2ccnc2-c2cc3n(n2)CCNC3)c1` | -0.8969 | 7.595 | 25 |
| `CCc1cc(N(C)Cc2nonc2C)nc(N2CCOCC2)n1` | -15.68 | 1.299 | 16.67 |
| `COC(=O)c1cc(CN2CCC(c3noc(C)n3)CC2)c(C)s1` | -13.13 | 12.12 | 15.96 |
| `Cc1nc(CN2CCCC(CCc3ccccc3C)C2)c[nH]1` (centres unmarked) | -15.42 | 7.143 | -8.333 |
| `CCc1nnc(N[C@H](C)c2cccc(OC)c2)o1` | -2.844 | 7.059 | 13.49 |
| `O=C(Cc1ccccc1Cl)Nc1cc(N2CCCC2)ncn1` | -11.05 | 4.762 | 9.333 |
| `Cc1nc(C)n(CC2CCCN2Cc2cn3ccsc3n2)n1` (centres unmarked) | -6.518 | 1.527 | 10.64 |
| `CC(C)n1cnnc1CNC(=O)c1cnc2ccccc2n1` | -28.97 | 1.657 | 12.5 |
| `Cc1ccc(C)c(C(NC(=O)C(C)(C)C)c2cccnc2)c1` (centres unmarked) | -27.34 | 2.174 | 14.56 |
| `COc1ncccc1C(=O)N1CC[C@H]2C[C@@H](c3ccncn3)O[C@@H]2C1` | -1.016 | 4.878 | 15.38 |
| `Cc1cc(O)c(OCC(=O)/N=c2/[nH]c3c(s2)CCC3)cn1` | -22.13 | 0 | -17.5 |
| `CCCn1cc(C(=O)NC(CC(=O)O)c2ccco2)c(C)n1` (centres unmarked) | -28.68 | 2.299 | 7.692 |
| `CO[C@@H]1CN(S(=O)(=O)c2cn(C)cn2)[C@@H]2CCCO[C@@H]21` | -23.3 | 3.226 | 17.17 |
| `CN(Cc1nc2ccccc2o1)CC1CCCN1c1cccnn1` (centres unmarked) | -21.46 | 2.521 | 24.79 |
| `CC(C)c1nnc2ccc(N3CCC(C(N)=O)CC3)nn12` | -25.65 | 2.732 | 1.942 |
| `NCCCNS(=O)(=O)Cc1ccc(Br)cc1` | -1.14 | 0.9804 | 11.2 |
| `CCN1CCC2(CN(C(=O)N(C)C)CC23CCN(CC2CC2)CC3)C1=O` (centres unmarked) | -49.24 | 1.942 | 9.709 |
| `Cc1noc2nc(C3CCCN(Cc4ccncc4)C3)cc(C(F)F)c12` (centres unmarked) | -0.2551 | 9.574 | 19.79 |
| `Cc1cnc(CNC(=O)c2cc3c(s2)CCN3S(C)(=O)=O)cn1` | -44.15 | 5.376 | 17.54 |
| `Cc1cc(C)n(-c2ccc(N3CCC4(CC3)OCC(C)O4)nc2)n1` (centres unmarked) | -15 | 6.383 | 19.4 |
| `CC(=O)Nc1nc(CN2CCCC2Cn2cncn2)cs1` (centres unmarked) | -16.21 | -0.7634 | 30.14 |
| `Cc1ccc(CN2Cc3nnn(C)c3C(COCC(=O)N(C)C)C2)s1` (centres unmarked) | -6.484 | 3.738 | 11.11 |
| `CCOc1ccccc1C(C(=O)O)N(C)Cc1nc(C)c[nH]1` (centres unmarked) | 3.145 | 5.025 | 20 |
| `COCCN(CCOC)C(=O)NC1CCCCC1` | -3.895 | 4.762 | 2.222 |
| `CCCn1cc(NC(=O)c2ccncc2)ccc1=O` | 2.892 | 38.33 | 103.6 |
| `Cc1nc(-c2ccccc2)sc1C(=O)NCCNc1ncccn1` | -8.746 | 0 | 16.67 |
| `O=C1[C@H]2CN(Cc3ccc(F)cc3)C[C@H]2CN1c1ccsc1` | 1.581 | 12.61 | 8.257 |
| `Cc1n[nH]c(C)c1C1COCCN1C(=O)c1cc(F)ccc1F` (centres unmarked) | -15.27 | 3.812 | 8.333 |
| `CCOc1ccc(S(=O)(=O)NCCCc2ccc(N(C)C)cc2)cc1F` | 5.656 | 2.062 | 12.17 |
| `CN(C)C(=O)N[C@H]1CN(Cc2ccc3c(c2)OCO3)[C@@H]2CCCO[C@H]12` | -16.4 | -2.404 | 0.9174 |
| `COC[C@]1(O)CCN(Cc2c[nH]c(CC3CCCC3)n2)CC1(C)C` | 6.01 | 1.299 | -8.571 |
| `CCc1ncncc1C(=O)NCCNc1ncnc2sccc12` | -18.41 | 7.831 | 17.58 |
| `CC(C)NC(=O)[C@H]1CCS(=O)(=O)[C@@H]2CN(c3ncccn3)C[C@H]12` | -37.91 | 4.372 | 17.54 |
| `COc1ccc(CN2C[C@@H]3CC[C@H](C2)N(S(C)(=O)=O)C3)cc1` | -24.08 | 0.8696 | 10 |
| `CS(=O)(=O)NCc1nnc2n1CCN(Cc1cccnc1)C2` | -43.08 | -3.922 | -2 |
| `Cc1nc(CN2CCCN(C(=O)c3c(C)noc3C)CC2)cs1` | 1.499 | 4.167 | 15.09 |
| `Clc1cccc(Cl)c1CN(CCCN1CCOCC1)Cc1cccnc1` | -4.642 | 10.15 | 14.18 |
| `O=C(O)[C@]12CCCN(Cc3ccsc3)C[C@H]1CN(c1ncccn1)C2` | 9.402 | 8.743 | 10.53 |

Repeated from the top, 7 entries:

| SMILES | Pks13 thioesterase | TcHisRS | LiHisRS |
|---|---|---|---|
| `O=C(Cc1ccc(O)c(Cl)c1)N1CCCCC1CCn1cccn1` (centres unmarked) | -33.95 | 2.5 | 17.31 |
| `CCN1C(=O)C(C)(C)c2cc(NC(=O)c3ccco3)ccc21` | -12.47 | 0.8368 | 25.47 |
| `O=C(C[S+]([O-])Cc1ccc(F)cc1Cl)NC1CCCC1` (centres unmarked) | -25.82 | 7.143 | 20 |
| `CCCNC(=O)C(C)NC(=O)Nc1ccccc1SC(F)F` (centres unmarked) | 8.074 | 4.706 | 15.08 |
| `Cc1nc(CN2CCCN(CCOc3ccc(C#N)cc3)CC2)no1` | -6.66 | 15.03 | 30.7 |
| `CCN(C)c1cc(CNC(=O)CNC(=O)CC2CCCCC2)ccn1` | -4.316 | 8.407 | 16.81 |
| `c1cc2nccc(CC3CCCN(C4CCOCC4)CC3)c2cn1` (centres unmarked) | 11.71 | 13.33 | 22.68 |